Assay results: PubChem BioAssay AID1508600 (Functional Genomics Laboratory (NCATS/FGL), 2020)
In all, about 53,000 sequences went through this assay and about 3,700 (7%) were called active.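 Rule for the calls: active = gene knockdowns whose robust z-score for IL-1 alpha signal is at least 2 or at most -2, so actives lie on both sides; inactive = the rest.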 The list shows a part of the results.

Assay: Components of the Cytosolic LPS Sensing Pathway: Gene Identification via Genome-wide siRNA Screen;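 note: robust z of the log signal after scaling to non-targeting control siRNA wells of the plate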
Conditions: RAW264.7 macrophages, IL-1a HTRF, actives lie on both sides, screened at 100 nM (by protocol), cells primed 5 h with Pam3CSK4 first
Outline: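 Mouse macrophage line RAW264.7 is transfected with siRNA (100 nM final), grown 48h, primed with TLR ligand Pam3CSK4 5 h and given intracellular LipidA 24 h. IL-1a in supernatant is read by HTRF and viability by luminescence.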

Sequence	z-score
GGACUUAAGAAAGAUGUGUTT against A130010J15Rik	inactive: -0.877
CCAAUCGGAAAUUUUACUGTT against Sh3yl1	inactive: 0.182
GGGCGACUUUAGCUUUUAUTT against Pced1b	active: 2.51
GGAGAAGAGGACAGAAGCCTT against Akt1s1	inactive: 0.757
GGAGAGAAAAAAGUCUCUCTT against Olfr66	active: 2.55
GGAGCAGUCUCCUUUUUGUTT against Pcnp	active: 2.14
GGCAGAAAUACAAUCUUCGTT against Umodl1	inactive: 0.98
GGACAUCAAGUUCUUGCCATT against Hspa5	inactive: -0.478
GGAGAUUCGAAGCCUUACUTT against Irak4	inactive: -1.76
GCUUUGUCAAUAAGCCCACTT against Shc1	inactive: 1.98
GGCACUUGAAUUUCUAAGUTT against Cbx5	inactive: 0.0672
GCAGCAUCUACAUGCCGCUTT against Jade3	inactive: 1.43
GGUACGAAGAAGACAAAAATT against Tnfsf9	inactive: -0.0411
GGUGAGAAGCCUUACCUCUTT against Zfp775	inactive: -0.167
GGUCAGCAUUUGCUAUGAATT against Tmsb15l	active: -2.02
CGUGAACUUUCAGAGCAGGTT against Rrp36	inactive: 0.124
GCUAAUAUGCCACUGCCCGTT against Pls3	inactive: 1.55
GGCCCAGUGACUAUGGAAUTT against Mpnd	active: -2.68
GCUAAAUUUGGGCACUAAUTT against Tvp23b	inactive: -0.708
GGAUGGCCUGGCCUUCAAUTT against Sptb	inactive: 1.85
GGUUGACCUGUGCUUUUCGTT against Arr3	inactive: -0.625
GGAUCAGGAAGUAAACUUCTT against S100a6	active: 2.57
CCCGACGACUUAAAAUGGATT against Thap2	inactive: -1.44
GGAUGAGAAUGGCACCAGUTT against Prima1	inactive: -1.4
GCAAGUUGUCCUCACCUGUTT against Mynn	inactive: 1.52
CGUCUACUUAUCAAUAUGATT against Rbm5	inactive: 0.112
GGACUUAACUGGACAAAAUTT against Nlrc4	inactive: -0.118
GCUUUUGAUAACUGCCUGGTT against Lce3f	inactive: -0.385
GCAGAACCGCCAACCAACATT against Smarcc2	active: -2.03
GCAUAAACAGGCAUUAAAUTT against Sav1	inactive: 0.464

Another view of some results above:
GGAUGAGAAUGGCACCAGUTT against Prima1
  z-score: inactive: -1.4
GCAAGUUGUCCUCACCUGUTT against Mynn
  z-score: inactive: 1.52
